# Reference: US20260217692A1 (Ascentage Pharma (Suzhou) Co., Ltd., priority 2023, published 2026)
# Where a name gives a salt, the structure may show the parent alone. Further values from the same series stand in other lists.
# How the values were obtained:
# Assay type in all cases: physicochemical
# [1] = Polymorph screening test, suspension method (crystal form by XRPD after stirring in solvent); conditions: suspension method, 3 days
# Protocol: (or 50° C.) for 3 days in the dark and centrifuged to remove the supernatant; the resulting precipitate was dried under vacuum (25° C., −0.1 MPa); and the resulting solid was collected and subjected to the XRPD test. The results are as follows:
# (or 50° C./80° C.) for 3 days in the dark and centrifuged to remove the supernatant; and the resulting precipitate was dried under vacuum (25° C., −0.1 MPa).
# (or 50° C.) for 3 days in the dark and centrifuged to remove the supernatant; and the resulting precipitate was dried under vacuum (25° C., −0.1 MPa).
# [2] = Polymorph screening test, volatilization method (crystal form by XRPD); conditions: slow volatilization at room temperature
# From the text: (§1) The results are as follows:
# A total of 15 slow volatilization tests were set up using different solvent systems. […] The resulting solid was collected and subjected to the XRPD test.
# A total of 10 slow volatilization tests were set up using different solvent systems. […] The resulting solid was collected and subjected to the XRPD test.
# A total of 3 slow volatilization tests were set up using different solvent systems. […] The resulting solid was collected and subjected to the XRPD test.
# [3] = Polymorph screening test, poor solvent / anti-solvent method (crystal form by XRPD); conditions: anti-solvent method, stirred 5 days
# From the text: as §1
smiles,measurement,setting,value
Cc1cc(Nc2ncc(Cl)c(Nc3ccccc3S(=O)(=O)C(C)C)n2)c(OC(C)C)cc1C1=CCN(C2CCOCC2)CC1 [one equivalent of maleate crystal form A],Crystal form (XRPD),"[1]; 1,4-Dioxane, 25° C.",Crystal form A
same,Crystal form (XRPD),"[1]; 1,4-Dioxane, 50° C.",Crystal form A
same,Crystal form (XRPD),"[1]; 2-Methyltetrahydrofuran, 25° C.",Crystal form A
same,Crystal form (XRPD),"[1]; 2-Methyltetrahydrofuran, 50° C.",Crystal form A
same,Crystal form (XRPD),"[1]; Acetone-water 1:1, 25° C.",Crystal form A
same,Crystal form (XRPD),"[1]; Acetone-water 1:1, 50° C.",Crystal form A
same,Crystal form (XRPD),"[1]; Acetone, 25° C.",Crystal form A
same,Crystal form (XRPD),"[1]; Acetone, 50° C.",Crystal form A
same,Crystal form (XRPD),"[1]; Acetonitrile-water 1:1, 25° C.",Crystal form A
same,Crystal form (XRPD),"[1]; Acetonitrile-water 1:1, 50° C.",Crystal form A
same,Crystal form (XRPD),"[1]; Acetonitrile, 25° C.",Crystal form A
same,Crystal form (XRPD),"[1]; Acetonitrile, 50° C.",Crystal form A
same,Crystal form (XRPD),"[1]; Cyclohexane, 25° C.",Crystal form A
same,Crystal form (XRPD),"[1]; Cyclohexane, 50° C.",Crystal form A
same,Crystal form (XRPD),"[1]; Dichloromethane, 25° C.",Crystal form A
same,Crystal form (XRPD),"[1]; Dichloromethane, 50° C.",Crystal form A
same,Crystal form (XRPD),"[1]; Ethanol, 25° C.",Crystal form A
same,Crystal form (XRPD),"[1]; Ethanol, 50° C.",Crystal form A
same,Crystal form (XRPD),"[1]; Ethyl acetate, 25° C.",Crystal form A
same,Crystal form (XRPD),"[1]; Ethyl acetate, 50° C.",Crystal form A
same,Crystal form (XRPD),"[1]; Isopropanol, 25° C.",Crystal form A
same,Crystal form (XRPD),"[1]; Isopropanol, 50° C.",Crystal form A
same,Crystal form (XRPD),"[1]; Isopropyl acetate, 25° C.",Crystal form A
same,Crystal form (XRPD),"[1]; Isopropyl acetate, 50° C.",Crystal form A
same,Crystal form (XRPD),"[1]; Methanol-water 1:1, 25° C.",Crystal form A
same,Crystal form (XRPD),"[1]; Methanol-water 1:1, 50° C.",Crystal form A
same,Crystal form (XRPD),"[1]; Methanol, 25° C.",Crystal form A
same,Crystal form (XRPD),"[1]; Methanol, 50° C.",Crystal forms A + B
same,Crystal form (XRPD),"[1]; Methyl acetate, 25° C.",Crystal form A
same,Crystal form (XRPD),"[1]; Methyl acetate, 50° C.",Crystal form A
same,Crystal form (XRPD),"[1]; Methyl ethyl ketone, 25° C.",Crystal form A
same,Crystal form (XRPD),"[1]; Methyl ethyl ketone, 50° C.",Crystal form A
same,Crystal form (XRPD),"[1]; Methyl isobutyl ketone, 25° C.",Crystal form A
same,Crystal form (XRPD),"[1]; Methyl isobutyl ketone, 50° C.",Crystal form A
same,Crystal form (XRPD),"[1]; Methyl tert-butyl ether, 25° C.",Crystal form A
same,Crystal form (XRPD),"[1]; Methyl tert-butyl ether, 50° C.",Crystal form A
same,Crystal form (XRPD),"[1]; Tetrahydrofuran, 25° C.",Crystal form A
same,Crystal form (XRPD),"[1]; Tetrahydrofuran, 50° C.",Crystal form A
same,Crystal form (XRPD),"[1]; Toluene, 25° C.",Crystal form A
same,Crystal form (XRPD),"[1]; Toluene, 50° C.",Crystal form A
same,Crystal form (XRPD),"[1]; Water, 25° C.",Crystal form A
same,Crystal form (XRPD),"[1]; Water, 50° C.",Crystal form A
same,Crystal form (XRPD),"[1]; n-Heptane, 25° C.",Crystal form A
same,Crystal form (XRPD),"[1]; n-Heptane, 50° C.",Crystal form A
same,Crystal form (XRPD),"[1]; n-Hexane, 25° C.",Crystal form A
same,Crystal form (XRPD),"[1]; n-Hexane, 50° C.",Crystal form A
same,Crystal form (XRPD),"[2]; ACN/DCM (5:7, v/v)",Crystal form A
same,Crystal form (XRPD),"[2]; Acetone/DCM (5:10, v/v)",Crystal form A
same,Crystal form (XRPD),[2]; DCM,Crystal form A
same,Crystal form (XRPD),"[2]; Dioxane/DCM (5:10, v/v)",Crystal form A
same,Crystal form (XRPD),"[2]; EA/DCM (5:10, v/v)",Crystal form A
same,Crystal form (XRPD),"[2]; EtOH/DCM (3:3, v/v)",Crystal forms A + B
same,Crystal form (XRPD),"[2]; IPA/DCM (4:4, v/v)",Crystal forms A + B
same,Crystal form (XRPD),"[2]; IPAc/DCM (5:10, v/v)",Crystal form A
same,Crystal form (XRPD),"[2]; MeOH/DCM (3:2, v/v)",Crystal form A
same,Crystal form (XRPD),"[2]; THF/DCM (5:10, v/v)",Crystal form A
same,Crystal form (XRPD),"[3]; good solvent DCM, poor solvent ACN",Crystal form A
same,Crystal form (XRPD),"[3]; good solvent DCM, poor solvent Acetone",Crystal form B
same,Crystal form (XRPD),"[3]; good solvent DCM, poor solvent Dioxane",Crystal form B
same,Crystal form (XRPD),"[3]; good solvent DCM, poor solvent EA",Crystal form B
same,Crystal form (XRPD),"[3]; good solvent DCM, poor solvent MTBE",Crystal form B
same,Crystal form (XRPD),"[3]; good solvent DCM, poor solvent MeOH",No solid sample was obtained
same,Crystal form (XRPD),"[3]; good solvent DCM, poor solvent Water",No solid sample was obtained
same,Crystal form (XRPD),"[3]; good solvent DCM, poor solvent n-Heptane",Crystal forms A + B
same,Crystal form (XRPD),"[3]; good solvent DMF, poor solvent Dioxane",No solid sample was obtained
same,Crystal form (XRPD),"[3]; good solvent DMF, poor solvent MTBE",Crystal form B
same,Crystal form (XRPD),"[3]; good solvent DMF, poor solvent Water",Crystal form A
same,Crystal form (XRPD),"[3]; good solvent DMF, poor solvent n-Heptane",No solid sample was obtained
same,Crystal form (XRPD),"[3]; good solvent DMSO, poor solvent Dioxane",No solid sample was obtained
same,Crystal form (XRPD),"[3]; good solvent DMSO, poor solvent MTBE",No solid sample was obtained
same,Crystal form (XRPD),"[3]; good solvent DMSO, poor solvent Water",Crystal form A
same,Crystal form (XRPD),"[3]; good solvent DMSO, poor solvent n-Heptane",No solid sample was obtained
same,Crystal form (XRPD),"[3]; good solvent NMP, poor solvent Dioxane",No solid sample was obtained
same,Crystal form (XRPD),"[3]; good solvent NMP, poor solvent MTBE",Crystal form A
same,Crystal form (XRPD),"[3]; good solvent NMP, poor solvent Water",Crystal form B
same,Crystal form (XRPD),"[3]; good solvent NMP, poor solvent n-Heptane",No solid sample was obtained
